PubChem BioAssay AID652259, Drosophila RNAi Screening Center – 2013
The deposit covers about 22,000 reagents; this is an unselected part of those with a known target gene and a result. Of all reagents, 233 (1.1%) are marked active. 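Light values are raw, unnormalised plate reads; the ratio scores behind the reporter calls were not deposited.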 Not stated in the record: the amount of reagent, the time to read-out, the dose of the treatment.

Test: 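Identify new Wingless signalling regulators in fly cells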 (primary screen)
Cell system: Drosophila clone 8 imaginal disc epithelial cells
Reagents: long dsRNA against Drosophila genes
Conditions: pathway stimulated by co-transfected Wingless expression plasmid
Read-out: 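Dual luciferase reads per well after Wingless plasmid stimulation: reporter firefly light and Renilla control light; activity is firefly divided by Renilla, a ratio not deposited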
Scale: firefly reporter light: higher = more Wg reporter light, before normalisation; Renilla control light: higher = more transfected or surviving cells
Call rule: 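Strong candidates differ from their plate mean by at least two out of four per-plate statistical tests; weak candidates meet just one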
Meaning of the calls: active = candidate regulator (raises or lowers reporter); inactive = not a candidate

| gene | dsRNA | firefly reporter light, replicate 1 | firefly reporter light, replicate 2 | Renilla control light, replicate 1 | Renilla control light, replicate 2 | Call |
| --- | --- | --- | --- | --- | --- | --- |
| CG16734 | DRSC15143 | 15098 | – | 3922 | – | inactive |
| CG31606 | DRSC01012 | 18900 | – | 8528 | – | inactive |
| Trm7-34 (tRNA methyltransferase 7-34) | DRSC16171 | 20731 | – | 6067 | – | inactive |
| CG7896 | DRSC16335 | 1547 | 4908 | 714 | 1158 | inactive |
| CG33109 | DRSC16533 | 15755 | – | 3340 | – | inactive |
| RpS23 (Ribosomal protein S23) | DRSC07169 | 9837 | – | 3596 | – | inactive |
| Cubn (Cubilin) | DRSC18256 | 2534 | 5620 | 652 | 1788 | inactive |
| CG33543 | DRSC00384 | 6779 | 12477 | 1204 | 2241 | inactive |
| CG33543 | DRSC00385 | 4069 | 5197 | 1347 | 2593 | inactive |
| Pglym87 (Phosphoglyceromutase 87) | DRSC15252 | 8700 | – | 3308 | – | inactive |
| Alas (Aminolevulinate synthase) | DRSC04044 | 9698 | – | 2150 | – | inactive |
| Dhc64C (Dynein heavy chain 64C) | DRSC08656 | 6042 | – | 1911 | – | inactive |
| lqfR (liquid facets-Related) | DRSC14703 | 1930 | 5465 | 716 | 1405 | inactive |
| lqfR (liquid facets-Related) | DRSC14704 | 38283 | – | 8355 | – | inactive |
| Kdm4B (Lysine demethylase 4B) | DRSC06862 | 7752 | – | 2585 | – | inactive |
| t-cup (tetleys-cup) | DRSC01254 | 22133 | – | 12225 | – | inactive |
| CR42745 (retired record) | DRSC13756 | 3948 | – | 2490 | – | inactive |
| nerfin-1 (nervous fingers 1) | DRSC08729 | 5957 | – | 2856 | – | inactive |
| MSBP (membrane steroid binding protein) | DRSC20146 | 1833 | 7816 | 861 | 2165 | inactive |
| CG14383 | DRSC14841 | 19192 | – | 2917 | – | inactive |
| CG10931 | DRSC06015 | 7859 | – | 1976 | – | inactive |
| CG9330 | DRSC11066 | 13057 | – | 4999 | – | inactive |
| His2Av (Histone H2A variant) | DRSC16702 | 3367 | 10566 | 729 | 1097 | inactive |
| htl (heartless) | DRSC16968 | 2680 | 6432 | 1099 | 1623 | inactive |
| CG31275 | DRSC16919 | 15661 | – | 4100 | – | inactive |
| CG5013 | DRSC15695 | 18304 | – | 3809 | – | inactive |
| CG11570 | DRSC09844 | 8401 | – | 3469 | – | inactive |
| CG5274 | DRSC11774 | 7045 | – | 2211 | – | inactive |
| Hdc (Histidine decarboxylase) | DRSC07439 | 7697 | – | 2800 | – | inactive |

Records above whose gene name begins with H or h (3):
| gene | dsRNA | firefly reporter light, replicate 1 | firefly reporter light, replicate 2 | Renilla control light, replicate 1 | Renilla control light, replicate 2 | Call |
| --- | --- | --- | --- | --- | --- | --- |
| His2Av (Histone H2A variant) | DRSC16702 | 3367 | 10566 | 729 | 1097 | inactive |
| htl (heartless) | DRSC16968 | 2680 | 6432 | 1099 | 1623 | inactive |
| Hdc (Histidine decarboxylase) | DRSC07439 | 7697 | – | 2800 | – | inactive |
